From PMC4763415, “Platinum (IV)-fatty acid conjugates overcome inherently and acquired Cisplatin resistant cancer cell lines: an in-vitro study” (BMC Cancer, 2016)
“Also recorded” adds a separate entry of the source.

Columns and labels:
A2780 cells = assay: Platinum uptake by ICP-MS, A2780; type: cell-based, human; details: 1 h; for platinum accumulated per cells: ICP-MS; for increase in uptake compared to Cisplatin: A2780, derivatives 10 microM vs Cisplatin 50 microM
[1] = system: A2780 Ctr1- (# 348) cells; assay: Platinum uptake by ICP-MS, A2780 Ctr1- (clone #348); type: cell-based, human; details: 1 h; for reduction in uptake upon Ctr1 silencing (clone #348) vs A2780: ICP-MS; for effect of Ctr1 silencing on uptake: A2780 Ctr1- clone #348 vs A2780, 10 microM

Row | Structure (SMILES) | platinum accumulated per cells (A2780 cells; A2780, 50 microM) | reduction in uptake upon Ctr1 silencing (clone #348) vs A2780 [1] | platinum accumulated per cells (A2780 cells; A2780, 10 microM) | increase in uptake compared to Cisplatin (A2780 cells) | effect of Ctr1 silencing on uptake [1]
1 | N.N.[Cl][Pt][Cl] [Cisplatin, cis-Diamminedichloroplatinum (II)] | 0.00014 platinum /cells | 30% | – | – | –
2 | CCCCCCCCCCCC(=O)[O][Pt]([NH2])([NH2])([Cl])([Cl])[O]C(=O)CCCCCCCCCCC [RJY6, Cis, cis, trans-[diamminedichloro-bis-lauratoplatinum(IV)]] | – | 25% | 0.0054 platinum/cells | 30 fold | significantly lower
3 | CCCCCCCC(=O)[O][Pt]([NH2])([NH2])([Cl])([Cl])[O]C(=O)CCCCCCC [RJY13, Cis, cis, trans-[diamminedichloro-bis-octanoatoplatinum (IV)]] | – | – | 0.0041 platinum/cells | 30 fold | not dependent on the presence of Ctr1 protein; also recorded: not affected
